PubChem BioAssay AID1224830, NIAID, 2016
Screen: 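Genes whose knock-down alters the TNF-alpha reporter response to LPS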 (primary screen). Cell system: human THP-1 monocytic leukaemia cells, TNF dual-luciferase reporter clone, PMA-differentiated to macrophage-like cells. Reagent: siRNA pool against human genes, 50 nM. Duration: LPS for 4 h, given about 3 days after siRNA transfection. Conditions: bacterial LPS (TLR4 ligand), 10 ng/ml. Detection: 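TNF firefly reporter luminescence divided by renilla, normalised to the plate median, then turned into a robust z-score for each replicate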. Reading the numbers: TNF reporter robust z-score: higher = stronger TNF reporter response to LPS. Call rule: 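a well is active when its z-score exceeds 2.8 or falls below -1.5; control wells carry no call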.
The deposit covers about 18,000 reagents; shown is an unselected part. Over the whole deposit, about 2,900 (16%) were called active. 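Calls are made per well; low scores hint the gene aids the LPS response, high scores that it dampens it.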 Repeated entries: four replicate wells of each siRNA pool.

no.	target	TNF reporter robust z-score	call
1	PPIE	-0.15	inactive
2	PPIE	0	inactive
3	PPIE	-0.54	inactive
4	PPIE	-0.37	inactive
5	OXER1	1.8	inactive
6	OXER1	1.77	inactive
7	OXER1	1.41	inactive
8	OXER1	1.5	inactive
9	CNGA2	0.97	inactive
10	CNGA2	0.09	inactive
11	CNGA2	-1.17	inactive
12	CNGA2	0.76	inactive
13	ZFP36L1	0.62	inactive
14	ZFP36L1	-0.09	inactive
15	ZFP36L1	-0.48	inactive
16	ZFP36L1	0.31	inactive
17	RIPOR1	-0.46	inactive
18	RIPOR1	0.03	inactive
19	RIPOR1	-0.56	inactive
20	RIPOR1	0.24	inactive
21	ASIC3	-0.3	inactive
22	ASIC3	-0.35	inactive
23	ASIC3	-0.52	inactive
24	ASIC3	-0.13	inactive
25	PEPD	0.71	inactive
26	PEPD	2.69	inactive
27	PEPD	0.83	inactive
28	PEPD	0.41	inactive
29	DTD1	-1.52	active
30	DTD1	-0.46	inactive
31	DTD1	-1.59	active
32	DTD1	-0.25	inactive
33	NETO1	-0.65	inactive
34	NETO1	-0.08	inactive
35	NETO1	-0.89	inactive
36	NETO1	0.01	inactive
37	SPINK4	-0.26	inactive
38	SPINK4	0.99	inactive
39	SPINK4	0.33	inactive
40	SPINK4	0.29	inactive
41	S100A2	-0.92	inactive
42	S100A2	-0.7	inactive
43	S100A2	-1.83	active
44	S100A2	-1.07	inactive
45	WFDC3	1.01	inactive
46	WFDC3	1.67	inactive
47	WFDC3	0.98	inactive
48	WFDC3	1.96	inactive
49	TIMP2	-0.87	inactive
50	TIMP2	-1.12	inactive
51	TIMP2	-0.69	inactive
52	TIMP2	-0.22	inactive
53	ZNF614	0.64	inactive
54	ZNF614	-0.84	inactive
55	ZNF614	-1.02	inactive
56	ZNF614	0.48	inactive
57	DNAH1	0.97	inactive
58	DNAH1	1.77	inactive
59	DNAH1	1.03	inactive
60	DNAH1	0.61	inactive
61	RAB21	0.85	inactive
62	RAB21	1.01	inactive
63	RAB21	1.17	inactive
64	RAB21	1.18	inactive
65	ALG8	0.64	inactive
66	ALG8	0.38	inactive
67	ALG8	-0.55	inactive
68	ALG8	0.4	inactive
69	ATAT1	1	inactive
70	ATAT1	2.53	inactive
71	ATAT1	1.68	inactive
72	PLXDC2	0.22	inactive
73	PLXDC2	0.81	inactive
74	PLXDC2	0.31	inactive
75	PLXDC2	-0.3	inactive
76	TBCB	0.83	inactive
77	TBCB	0.65	inactive
78	TBCB	0.68	inactive
79	TBCB	0.22	inactive
80	ZNF503	-1.81	active
81	ZNF503	-0.28	inactive
82	ZNF503	-0.03	inactive
83	ZNF503	-0.4	inactive
84	OR4S2	-0.17	inactive
85	OR4S2	-0.18	inactive
86	OR4S2	-0.29	inactive
87	OR4S2	0.19	inactive
88	KRT31	1.3	inactive
89	KRT31	1.02	inactive
90	KRT31	1.43	inactive
91	KRT31	0.86	inactive
92	ATG12	0.62	inactive
93	ATG12	1.2	inactive
94	ATG12	1.1	inactive
95	ATG12	1.95	inactive
96	P3H4	1.04	inactive
97	P3H4	1.28	inactive
98	P3H4	0.81	inactive
99	P3H4	0.73	inactive
100	RPAIN	0.8	inactive
101	RPAIN	1.96	inactive
102	RPAIN	1.39	inactive
103	RPAIN	1.28	inactive
104	UMOD	2.53	inactive
105	UMOD	1.95	inactive
106	UMOD	2.4	inactive
107	UMOD	5.5	active
108	POLD2	1.53	inactive
109	POLD2	2.54	inactive
110	POLD2	0.45	inactive
111	POLD2	1.88	inactive

Copied from the listing (8 entries):
no.	target	TNF reporter robust z-score	call
45	WFDC3	1.01	inactive
46	WFDC3	1.67	inactive
47	WFDC3	0.98	inactive
48	WFDC3	1.96	inactive
49	TIMP2	-0.87	inactive
50	TIMP2	-1.12	inactive
51	TIMP2	-0.69	inactive
52	TIMP2	-0.22	inactive
